At least one compound was matched to its structure with a doubt left.
Experiment: Carbodiimide (EDC)-mediated conjugation of goat anti-rabbit IgG to carboxylated gold nanoparticles in presence of additive, read by lateral flow assay
Conditions: pH 5, EDC
Description: Molecules were tested initially at pH 5 in EDC-mediated reactions with carboxylated gold particles (InnovaCoat GOLD, Innova Biosciences). Potentially interesting molecules from this screening exercise were further evaluated in NHS ester reactions, isothiocyanate reactions and thiolation reactions involving iminothiolane. All of these reactions are widely used in the antibody conjugation field and all would be expected to suffer from interference in the presence of glycine.
Lateral flow test strips (4 mm wide) were prepared from nitrocellulose membrane (Millipore Hi Flow plus 90) striped with goat anti-rabbit IgG (test line) and biotin-BSA (control line). Strips were housed in plastic cartridges and samples of gold conjugate (80 ul) were added to the sample pad. Cartridges were allowed to stand for 30 min and then read using a ESE-Quant GOLD reader—QIAGEN. Each sample was spiked with a fixed amount of streptavidin-gold (Innova biosciences—Product code: 250-0200), which binds to the control line, to check that each test strip had run correctly and that test line data was valid.
10 μg of goat anti-rabbit IgG (GAR) was used per ml of coated 40 nm nanoparticles with carboxyl functionality (InnovaCoat GOLD, Innova Biosciences) at […] in the presence of additives at 50 mM final concentration. […]

Structure (SMILES): N[C@@H](CC(=O)O)C(=O)O [aspartate]
- interference in carbodiimide-mediated antibody-gold nanoparticle conjugation reaction: severe interference

— patent US11046753B2, “Antibody composition and buffer system therefor” (INNOVA BIOSCIENCES LTD, priority 2013, dated 2021)
